Results are given in words; binding and its absence hold for the method and conditions named. In cells and extracts the contact can be indirect. Some results given as binding are weak or reduced against the parent protein; the word gives no strength. Where a sequence is shown, tags or fusion partners need not be part of it.
Columns and labels:
[1] = target: T1, BMP2 (UniProt P12643); assay: co-immunoprecipitation with anti-mCHL2 antiserum and protein A agarose, Western blot; mCHL2-FLAG at 600 ng/ml
T1 sequence (looked up): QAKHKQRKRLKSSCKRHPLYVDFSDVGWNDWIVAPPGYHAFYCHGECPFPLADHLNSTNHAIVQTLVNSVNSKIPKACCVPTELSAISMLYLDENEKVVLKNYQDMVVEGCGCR

Sequences of proteins named here, by UniProt entry; tags and fusion partners are left off. Residues count along the entry.
UniProt P22003, residues 317-454: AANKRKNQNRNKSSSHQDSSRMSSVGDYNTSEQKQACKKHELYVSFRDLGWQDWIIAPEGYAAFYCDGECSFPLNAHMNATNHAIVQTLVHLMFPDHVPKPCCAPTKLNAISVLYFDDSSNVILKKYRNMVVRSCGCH
UniProt P22004, residues 382-513: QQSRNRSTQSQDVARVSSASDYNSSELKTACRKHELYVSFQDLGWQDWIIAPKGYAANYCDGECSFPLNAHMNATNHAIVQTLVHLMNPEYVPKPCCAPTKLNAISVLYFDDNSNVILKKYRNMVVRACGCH

[2] = target: T2, BMP4 (UniProt P12644); assay: as above
T2 sequence (looked up): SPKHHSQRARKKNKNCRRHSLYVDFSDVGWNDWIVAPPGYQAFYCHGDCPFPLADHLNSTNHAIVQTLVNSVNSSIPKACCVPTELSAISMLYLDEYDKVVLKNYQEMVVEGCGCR

[3] = target: BMP5 (UniProt P22003); assay: as above
[4] = target: BMP6 (UniProt P22004); assay: as above
[5] = target: T3, GDF5 (BMP14) (UniProt P43026); assay: as above
T3 sequence (looked up): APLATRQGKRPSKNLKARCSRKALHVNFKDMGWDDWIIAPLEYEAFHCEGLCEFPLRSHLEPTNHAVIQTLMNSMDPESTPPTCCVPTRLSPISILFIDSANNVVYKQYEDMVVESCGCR

[6] = target: BMP5 (UniProt P22003); assay: co-immunoprecipitation: mCHL2-FLAG mixed with BMP5, anti-mCHL2 antiserum, protein A agarose beads, western blot for BMP5
[7] = target: T1, BMP2; assay: co-immunoprecipitation: mCHL2-FLAG mixed with BMP2, anti-mCHL2 antiserum, protein A agarose beads, western blot for BMP2
[8] = target: T2, BMP4; assay: co-immunoprecipitation: mCHL2-FLAG mixed with BMP4, anti-mCHL2 antiserum, protein A agarose beads, western blot for BMP4
[9] = target: BMP6 (UniProt P22004); assay: co-immunoprecipitation: mCHL2-FLAG mixed with BMP6, anti-mCHL2 antiserum, protein A agarose beads, western blot for BMP6
[10] = target: T3, GDF5 (BMP14); assay: co-immunoprecipitation: mCHL2-FLAG mixed with GDF5 (BMP14), anti-mCHL2 antiserum, protein A agarose beads, western blot for GDF5

Measured: binding

B1: FLAG-tagged murine CHL2 polypeptide (mCHL2-FLAG) (protein, not shown: small tags and cut ends)
chain: LSRSGKVCLFGEKIYTPGQSWHPYLEPQGTIYCVRCTCSENGHVNCYRLRCPPLHCSQPVMEPQQCCPRCVDPHVPSGLRVPLKSCQLNETTYQHGEIFSAQELFPARLSNQCVLCSCIEGHTYCGLMTCPEPSCPTTLPLPDSCCQTCKDRTTESSTEENLTQLQHGERHSQDPCSERRGPSTPAPTSLSSPLGFIPRHFQSVGMGSTTIKIILKEKHKKACTHNGKTYSHGEVWHPTVLSFGPMPCILCTCIDGYQDCHRVTCPTQYPCSQPKKVAGKCCKICPEDEAEDDHSEVISTRCPKVPGQFQVYTLASPSPDSLHRFVLEHEASDQVEMYIWKLVKGIYHLVQIKRVRKQDFQKEAQNFRLLTGTHEGYWTVFLAQTPELKVTASPDKVTKTL
binds: all assays above
